Data from paper PMC9794786.
No constants are given. Whether binding was seen depends on the method and setting. Binding seen in cells or lysates may run through a third protein. Some results given as binding are weak or reduced against the parent protein; the word gives no strength.

The chains behind the UniProt entries cited, without tags or fusion partners.
UniProt Q9HCK8: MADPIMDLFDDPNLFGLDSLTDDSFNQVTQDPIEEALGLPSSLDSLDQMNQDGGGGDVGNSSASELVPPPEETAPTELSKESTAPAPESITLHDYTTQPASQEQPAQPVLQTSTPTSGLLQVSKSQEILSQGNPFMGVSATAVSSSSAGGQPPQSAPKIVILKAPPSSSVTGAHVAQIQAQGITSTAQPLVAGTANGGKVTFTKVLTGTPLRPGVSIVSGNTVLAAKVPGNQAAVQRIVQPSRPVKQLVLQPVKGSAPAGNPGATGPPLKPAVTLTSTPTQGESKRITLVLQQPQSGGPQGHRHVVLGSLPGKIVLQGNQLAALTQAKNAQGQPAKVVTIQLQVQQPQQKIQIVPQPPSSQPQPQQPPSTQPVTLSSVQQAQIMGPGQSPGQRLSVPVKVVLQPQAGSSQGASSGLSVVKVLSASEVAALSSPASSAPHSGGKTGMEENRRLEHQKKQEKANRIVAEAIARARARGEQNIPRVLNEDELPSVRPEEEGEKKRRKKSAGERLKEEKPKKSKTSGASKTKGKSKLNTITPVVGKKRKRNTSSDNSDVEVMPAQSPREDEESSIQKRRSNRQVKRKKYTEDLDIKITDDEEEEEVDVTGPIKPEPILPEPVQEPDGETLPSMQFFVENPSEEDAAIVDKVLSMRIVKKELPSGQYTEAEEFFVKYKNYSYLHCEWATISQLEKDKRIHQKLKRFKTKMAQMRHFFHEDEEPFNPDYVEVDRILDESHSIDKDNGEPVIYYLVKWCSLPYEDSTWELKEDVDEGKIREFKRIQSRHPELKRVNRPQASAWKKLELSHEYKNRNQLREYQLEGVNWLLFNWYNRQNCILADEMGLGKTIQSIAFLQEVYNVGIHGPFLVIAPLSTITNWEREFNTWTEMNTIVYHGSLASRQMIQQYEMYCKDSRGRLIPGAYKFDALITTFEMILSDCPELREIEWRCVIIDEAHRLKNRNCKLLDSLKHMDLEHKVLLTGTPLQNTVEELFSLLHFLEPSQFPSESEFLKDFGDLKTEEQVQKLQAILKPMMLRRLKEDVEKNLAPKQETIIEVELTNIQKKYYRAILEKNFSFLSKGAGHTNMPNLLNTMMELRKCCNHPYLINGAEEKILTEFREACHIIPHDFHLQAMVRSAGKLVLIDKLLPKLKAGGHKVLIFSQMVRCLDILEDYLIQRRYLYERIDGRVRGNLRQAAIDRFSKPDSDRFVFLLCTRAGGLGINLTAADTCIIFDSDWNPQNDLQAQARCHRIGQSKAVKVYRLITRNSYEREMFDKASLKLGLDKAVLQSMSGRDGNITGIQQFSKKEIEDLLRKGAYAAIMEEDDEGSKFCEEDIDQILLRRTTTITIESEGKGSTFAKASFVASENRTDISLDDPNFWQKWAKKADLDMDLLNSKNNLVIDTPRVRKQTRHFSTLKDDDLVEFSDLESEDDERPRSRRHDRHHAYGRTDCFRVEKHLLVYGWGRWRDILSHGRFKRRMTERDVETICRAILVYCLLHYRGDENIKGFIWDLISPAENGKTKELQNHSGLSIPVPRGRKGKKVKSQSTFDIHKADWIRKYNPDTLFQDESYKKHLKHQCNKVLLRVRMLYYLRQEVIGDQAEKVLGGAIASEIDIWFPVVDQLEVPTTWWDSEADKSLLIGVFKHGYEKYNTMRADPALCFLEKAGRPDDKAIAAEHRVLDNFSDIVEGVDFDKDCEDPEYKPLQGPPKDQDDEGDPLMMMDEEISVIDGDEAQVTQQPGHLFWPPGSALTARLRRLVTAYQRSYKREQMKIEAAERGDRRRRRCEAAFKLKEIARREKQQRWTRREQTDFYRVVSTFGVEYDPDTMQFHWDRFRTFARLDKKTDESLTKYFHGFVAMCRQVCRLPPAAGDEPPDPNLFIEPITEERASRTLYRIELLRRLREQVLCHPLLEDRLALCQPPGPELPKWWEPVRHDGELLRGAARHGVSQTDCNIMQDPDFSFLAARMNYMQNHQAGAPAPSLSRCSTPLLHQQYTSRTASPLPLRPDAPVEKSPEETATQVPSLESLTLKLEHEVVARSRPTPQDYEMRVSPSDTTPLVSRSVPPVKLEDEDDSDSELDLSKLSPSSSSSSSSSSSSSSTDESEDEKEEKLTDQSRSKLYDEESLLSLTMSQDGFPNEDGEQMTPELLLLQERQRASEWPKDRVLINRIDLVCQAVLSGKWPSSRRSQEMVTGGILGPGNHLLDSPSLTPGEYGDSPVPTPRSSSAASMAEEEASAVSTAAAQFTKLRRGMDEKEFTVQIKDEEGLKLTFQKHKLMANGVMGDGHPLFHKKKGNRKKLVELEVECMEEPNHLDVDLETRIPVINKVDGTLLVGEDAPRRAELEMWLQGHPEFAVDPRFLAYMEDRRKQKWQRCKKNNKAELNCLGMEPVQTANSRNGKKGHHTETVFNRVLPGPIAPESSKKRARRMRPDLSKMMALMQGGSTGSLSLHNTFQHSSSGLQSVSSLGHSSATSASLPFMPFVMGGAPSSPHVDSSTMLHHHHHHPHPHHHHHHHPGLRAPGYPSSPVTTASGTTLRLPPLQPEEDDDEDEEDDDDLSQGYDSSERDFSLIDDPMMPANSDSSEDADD

Target: chromodomain helicase DNA-binding protein CHD8 (human (endogenous in stem cell-derived neurons)) (UniProt Q9HCK8)
Experiment: co-IP; anti-CHD8 antibody on protein G agarose beads; RIPA lysate of approximately 50 million human neurons grown glia-free, differentiated from stem cells for ten days; lysate incubated with beads for three hours; western blot for CHD8 and ELK1

B1: ELK1 (protein, UniProt P19419 1-428)
chain: MDPSVTLWQFLLQLLREQGNGHIISWTSRDGGEFKLVDAEEVARLWGLRKNKTNMNYDKLSRALRYYYDKNIIRKVSGQKFVYKFVSYPEVAGCSTEDCPPQPEVSVTSTMPNVAPAAIHAAPGDTVSGKPGTPKGAGMAGPGGLARSSRNEYMRSGLYSTFTIQSLQPQPPPHPRPAVVLPSAAPAGAAAPPSGSRSTSPSPLEACLEAEEAGLPLQVILTPPEAPNLKSEELNVEPGLGRALPPEVKVEGPKEELEVAGERGFVPETTKAEPEVPPQEGVPARLPAVVMDTAGQAGGHAASSPEISQPQKGRKPRDLELPLSPSLLGGPGPERTPGSGSGSGLQAPGPALTPSLLPTHTLTPVLLTPSSLPPSIHFWSTLSPIAPRSPAKLSFQFPSSGSAQVHIPSISVDGLSTPVVLSPGPQKP
  binding: binds
